Drawing on article PMC4669652, this text covers binding for one substance.

Amino acid sequences for entries named in this document (tags omitted). A change or cut given only in a name is not applied to a line headed by its entry.
UniProt Q12772: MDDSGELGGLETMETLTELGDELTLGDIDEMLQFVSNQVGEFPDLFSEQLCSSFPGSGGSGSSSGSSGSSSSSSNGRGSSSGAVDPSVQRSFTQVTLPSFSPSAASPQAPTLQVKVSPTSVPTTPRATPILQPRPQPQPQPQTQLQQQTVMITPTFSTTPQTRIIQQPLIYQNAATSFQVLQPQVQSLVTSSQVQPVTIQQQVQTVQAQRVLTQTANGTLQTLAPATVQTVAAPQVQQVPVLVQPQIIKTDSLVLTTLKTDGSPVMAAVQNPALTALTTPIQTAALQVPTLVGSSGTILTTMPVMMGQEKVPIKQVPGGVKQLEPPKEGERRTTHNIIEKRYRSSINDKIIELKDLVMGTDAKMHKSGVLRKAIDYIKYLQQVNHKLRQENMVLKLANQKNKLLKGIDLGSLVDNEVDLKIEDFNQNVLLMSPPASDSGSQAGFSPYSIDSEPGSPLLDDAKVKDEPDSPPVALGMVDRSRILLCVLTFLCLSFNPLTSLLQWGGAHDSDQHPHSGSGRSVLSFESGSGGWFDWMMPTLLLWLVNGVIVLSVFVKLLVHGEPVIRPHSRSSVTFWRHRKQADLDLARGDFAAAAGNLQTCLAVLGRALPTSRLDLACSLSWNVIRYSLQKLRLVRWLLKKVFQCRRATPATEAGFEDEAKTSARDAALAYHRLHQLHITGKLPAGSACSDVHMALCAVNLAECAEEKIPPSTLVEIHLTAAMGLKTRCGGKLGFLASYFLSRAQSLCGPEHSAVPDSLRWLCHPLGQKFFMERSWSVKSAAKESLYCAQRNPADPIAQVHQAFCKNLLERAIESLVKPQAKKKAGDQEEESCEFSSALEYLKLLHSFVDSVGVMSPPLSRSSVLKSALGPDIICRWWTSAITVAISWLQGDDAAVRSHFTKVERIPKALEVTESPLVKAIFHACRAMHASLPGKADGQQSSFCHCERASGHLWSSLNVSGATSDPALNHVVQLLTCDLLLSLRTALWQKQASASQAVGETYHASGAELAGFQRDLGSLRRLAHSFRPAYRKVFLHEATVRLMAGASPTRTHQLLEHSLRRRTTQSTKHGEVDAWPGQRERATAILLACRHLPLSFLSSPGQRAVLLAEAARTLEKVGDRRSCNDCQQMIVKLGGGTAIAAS

For one experiment, the target named is T1, GST-SHP full length (UniProt Q15466).
T1 sequence: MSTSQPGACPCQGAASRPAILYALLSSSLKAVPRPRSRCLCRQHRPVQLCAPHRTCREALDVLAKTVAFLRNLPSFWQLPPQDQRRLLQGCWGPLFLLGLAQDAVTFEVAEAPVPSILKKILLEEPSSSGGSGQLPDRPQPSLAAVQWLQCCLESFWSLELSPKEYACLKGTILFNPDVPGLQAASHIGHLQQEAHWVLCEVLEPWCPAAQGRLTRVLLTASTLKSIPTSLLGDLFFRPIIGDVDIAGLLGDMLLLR
Description: pull-down; partially purified GST-fusion proteins incubated with the reciprocal protein synthesized by TNT; bound protein detected by immunoblot; only the target purified.

The target of experiment [1] is T2, GST-SHP N-terminal domain (1-92 aa) (UniProt Q15466).
T2 sequence: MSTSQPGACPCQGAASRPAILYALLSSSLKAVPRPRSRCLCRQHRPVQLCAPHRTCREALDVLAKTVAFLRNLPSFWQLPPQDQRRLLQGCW
The description is as above.

These are yes or no findings as the source states them, for the method shown. Binding seen in cells or lysates may run through a third protein. Binding calls can cover weak binding; strength is not graded here. Tags and fused reporters may be left off the sequences shown.

“SREBP-2 synthesized by TNT (from UniProt Q12772)”: the binding entry (with GST-SHP full length; in experiment [1]) was “binds” throughout.
